{"source": "paper PMC12040169", "about": "(PLOS Biology, 2025)", "note": "Some of the results follow."}
{"tested_on": "T1, CTL2-GFP (C. trachomatis L2/434/Bu, GFP-expressing)", "T1 construct": "L2/434/Bu, GFP-expressing", "parameters": "species or system HeLa; Intracellular C. trachomatis growth in HeLa cells, bulk GFP fluorescence relative to DMSO", "conditions": "bulk GFP, single well; 28.5 h, 10 µM; inhibitor", "units": {"% of control remaining": "%"}}
{"smiles": "O=C(c1ccc(-c2ccoc2)nc1)N1CCCC1", "note": "[CBK156284]", "% of control remaining": 116.48}
{"smiles": "Cc1ccc2nc(-c3ccncc3)cc(C(=O)Nc3ccc(C(F)(F)F)cc3)c2c1", "note": "[CBK267732]", "% of control remaining": 114.158}
{"smiles": "COc1ccc(OC(=O)c2cccc(F)c2)c(C(C)=O)c1", "note": "[CBK088044]", "% of control remaining": 106.807}
{"smiles": "CCCC/C=C/c1cnc(N)c(-c2ccc(CCC(=O)O)cc2)n1", "note": "[CBK064127]", "% of control remaining": 104.873}
{"smiles": "Cc1ccc(CNC(Cc2c[nH]c3ccccc23)C(=O)O)cc1", "note": "(stereo not drawn) [CBK287145]", "% of control remaining": 99.6432}
{"smiles": "CCOc1ccccc1Cn1c2ccccc2c2nc3ccccc3nc21", "note": "[CBK266323]", "% of control remaining": 139.797}
{"smiles": "O=C(Cc1c[nH]cn1)N1CCC2(CCN(Cc3ccccc3)C2)C1", "note": "(stereo not drawn) [CBK137147]", "% of control remaining": 147.879}
{"smiles": "Cc1cc(C(=O)N2CCC(Oc3nccn(Cc4ccc(S(C)(=O)=O)cc4)c3=O)CC2)ccc1Cl", "note": "[CBK161883]", "% of control remaining": 109.042}
{"smiles": "N#CCCNS(=O)(=O)c1ccc(OC(F)(F)F)cc1", "note": "[CBK043560]", "% of control remaining": 157.837}
{"smiles": "Cc1c(C(=O)N2CC(n3cc(C(C)O)nn3)C2)sc2ccc(F)cc12", "note": "(stereo not drawn) [CBK305446]", "% of control remaining": 136.861}
{"smiles": "Cc1ncsc1C(=O)N1CCCCC1c1nc2ccccc2[nH]1", "note": "(stereo not drawn) [CBK283531]", "% of control remaining": 117.787}
{"smiles": "O=CN1CCc2c([nH]c3ccc(F)cc23)C12CCN(Cc1cccc(Oc3ccc(F)cc3)c1)CC2", "note": "[CBK040388]", "% of control remaining": 113.073}
{"smiles": "CCCn1c(CN2CCN(CCO)CC2)nc2ccccc21", "note": "[CBK269363]", "% of control remaining": 112.284}
{"smiles": "Cc1sc(NC(=S)NC(=O)Cc2cccc3ccccc23)c(C(N)=O)c1C", "note": "[CBK266344]", "% of control remaining": 247.694}
{"smiles": "COc1ccc([N+](=O)[O-])cc1-c1ccc(-c2nc(-c3ccccc3)c(-c3ccccc3)[nH]2)o1", "note": "[CBK262497]", "% of control remaining": 124.045}
{"smiles": "Nc1ncc(-c2cccc(OC(F)(F)F)c2)nc1N1CCN(CCO)CC1", "note": "[CBK063435]", "% of control remaining": 139.534}
{"smiles": "Cc1cc(C)n(CCCN(C)Cc2c(C)nc3ccccn23)n1", "note": "[CBK281901]", "% of control remaining": 111.203}
{"smiles": "Brc1ccc(-n2c(SC/C=C/c3ccccc3)nnc2-c2ccncc2)cc1", "note": "[CBK266257]", "% of control remaining": 110.01}
{"smiles": "Cc1ccc2c(c1)CC(=O)NC21CCN(C(=O)C2CC2C(=O)O)CC1", "note": "(stereo not drawn) [CBK047258]", "% of control remaining": 93.9899}
{"smiles": "CNc1ccc(OC(=O)c2ccco2)cc1", "note": "[CBK010779]", "% of control remaining": 110.446}
{"smiles": "N#Cc1c(NC(=O)CN2CCc3ccccc3C2)sc2c1CCCC2", "note": "[CBK269126]", "% of control remaining": 105.95}
{"smiles": "Cc1cccc(-c2ccc3c(c2)C(=O)N2CC[C@H](NC(=O)N4CCOCC4)[C@H]2C(=O)N3)c1C", "note": "[CBK289347]", "% of control remaining": 124.145}
{"smiles": "Cc1cc(COc2nc3ccccc3nc2N2CCCC2C(=O)OC(C)(C)C)no1", "note": "(stereo not drawn) [CBK173753]", "% of control remaining": 116.221}
{"smiles": "O=C(NCc1csc(-c2ccccc2)n1)C1CC=CCC1", "note": "(stereo not drawn) [CBK092348]", "% of control remaining": 120.311}
{"smiles": "CCNC(=O)c1ccc(-c2ccc(OC(F)(F)F)cc2)nc1", "note": "[CBK156230]", "% of control remaining": 118.577}
{"smiles": "O=C(Nc1cccnc1)C1c2ccccc2Oc2ccccc21", "note": "[CBK263129]", "% of control remaining": 109.133}
{"smiles": "c1ccc(Oc2cccc(OCCCCN3CCNCC3)c2)cc1", "note": "[CBK266027G]", "% of control remaining": 212.717}
{"smiles": "O=C(COc1ccccc1)Nc1ccc2n(c1=O)C[C@H]1C[C@@H]2CN(C(=O)c2ccccc2)C1", "note": "[CBK289079]", "% of control remaining": 148.644}
{"smiles": "COc1ccccc1CNC(=O)CCn1ccc2ccncc21", "note": "[CBK282229]", "% of control remaining": 137.385}
{"smiles": "c1ccc2nc(N3CCCC3)c(OCc3ccsc3)nc2c1", "note": "[CBK115819]", "% of control remaining": 115.16}
{"smiles": "COc1ccc(C)cc1S(=O)(=O)n1ccc2c(CN3CCC(N)CC3)cccc21", "note": "[CBK113312T]", "% of control remaining": 67.575}
{"smiles": "Cc1ccccc1OC(C)C(=O)NCCCN1CCOCC1", "note": "(stereo not drawn) [CBK268628]", "% of control remaining": 115.067}
{"smiles": "COC(=O)C1CC2CCC1(C)CC21NC(=O)c2ccccc2N1", "note": "(stereo not drawn) [CBK284440]", "% of control remaining": 78.5586}
{"smiles": "Cc1nn(C)c(Cl)c1S(=O)(=O)Nc1cccc(-c2cnco2)c1", "note": "[CBK067107]", "% of control remaining": 79.072}
{"smiles": "O=C(CN1CCOCC1)Nc1sc2c(c1C(=O)Nc1ccc(Cl)cc1)CCC2", "note": "[CBK265056]", "% of control remaining": 123.931}
{"smiles": "O=C(O)C1CCCN1C(=O)c1ccc(C#CC2(O)CCCCC2)cc1", "note": "(stereo not drawn) [CBK287022]", "% of control remaining": 120.766}
{"smiles": "CCCNS(=O)(=O)c1cc2c3c(c1)c(C)cc(=O)n3CCC2", "note": "[CBK307547]", "% of control remaining": 148.358}
{"smiles": "CCN(CC)CC(O)Cn1c(-c2ccccc2Cl)nc2ccccc21", "note": "(stereo not drawn) [CBK262495]", "% of control remaining": 100}
{"smiles": "CCCCOc1ccc(S(=O)(=O)N2CCN(c3cccc(C)c3C)CC2)cc1", "note": "[CBK099293]", "% of control remaining": 92.7762}
